Results taken from US4254107 (dated 1981).

Experiment: general procedure: hybrid (solid and solution phase) peptide synthesis; BOC-Phe-Met-OR; BOC-Tyr hydroxysuccinimide ester

Row | Substance | step yield (coupling step) [%] | also measured
1 | BOC-Tyr-2-[R-(3-amino-2-oxo-1-azepine)acetic acid]-Phe-Met-NH2 | 55 | 
2 | BOC-Tyr-2-[R-(3-amino-2-oxo-1-pyrrolidine)acetic acid]-Phe-Met-NH2 | 81 | 
3 | H-Tyr-2-[R-(2-oxo-1-azepine)acetic acid]-Phe-Met-NH2 |  | step yield (late stage modification step): 58%
4 | H-Tyr-2-[R-(3-amino-2-oxo-1-pyrrolidine)acetic acid]-Phe-Met-NH2 hydrochloride |  | step yield (late stage modification step, hydrochloride): 82%
